Results published in PubChem BioAssay (NCATS).
This is one part of the list. Shown are side measurements of this screen, not its main read-out; they come without a call. The list favours compounds with an active or inconclusive main result. Words in brackets tell the shape of the fitted curve; partial curves, single points and poor fits give uncertain potencies.

Assay: qHTS Assay for Modulators of Human Peripheral Myelin Protein 22 (PMP22) Expression/Activity (AID 1967)
Conditions: Cell-based PMP22 reporter, dual-color luciferase ratio; measured here: green reporter channel AC50; mouse Pmp22 promoter in mouse Schwann cells
Outline: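 Readout is the corrected green/red luminescence ratio after 24 h compound exposure, normalised to untreated cells (0%). Engineered MSC80 mouse Schwann cells express green luciferase from the mouse Pmp22 promoter and red luciferase from EF-alpha as internal control.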

| Structure (SMILES) | AC50 |
| --- | --- |
| COc1cc(C[C@@H](C)N)c(OC)cc1I | 67.5 µM [falling, partial curve] |
| c1ccc2nc(N3CCNCC3)ccc2c1 | 67.5 µM [falling, partial curve] |
| O=[N+]([O-])c1ccc(O[C@@H]2O[C@H](CO)[C@@H](O)[C@H](O)[C@H]2F)c([N+](=O)[O-])c1 | 26.9 µM [rising, partial curve, poor fit] |
| COc1ccc2c(c1O)-c1cccc3c1C(C2)N(C)CC3 (stereo unspecified) | 37.9 µM [falling, partial curve] |
| CCCn1c(=O)c2[nH]c(C3CCCC3)nc2n(CCCOC(=O)c2ccc(S(=O)(=O)F)cc2)c1=O | 75.7 µM [falling, partial curve] |
| C#CCOC(=O)C1=CCCN(C)C1 | 84.9 µM [falling, single point] |
| CC(N)C(=O)OC(C)(C)Cc1ccc(Cl)cc1 (stereo unspecified) | 75.7 µM [falling, partial curve] |
| CC1OC1P(=O)(O)O (stereo unspecified) | 13.5 µM [rising, partial curve, poor fit] |
| CC(C)NC(C)Cc1ccc(I)cc1 (stereo unspecified) | 84.9 µM [falling, single point] |
| CN1CCc2cc(O)cc3c2C1Cc1ccc(O)c(O)c1-3 (stereo unspecified) | 30.1 µM [falling, full curve] |
| CNc1ccc2oc(C[C@H]3O[C@@]4(CC[C@H]3C)O[C@H]([C@H](C)C(=O)c3ccc[nH]3)[C@H](C)C[C@H]4C)nc2c1C(=O)O | 2.69 µM [falling, full curve] |

A different layout for some results above.
Structure (SMILES) | AC50
CCCn1c(=O)c2[nH]c(C3CCCC3)nc2n(CCCOC(=O)c2ccc(S(=O)(=O)F)cc2)c1=O | 75.7 µM [falling, partial curve]
C#CCOC(=O)C1=CCCN(C)C1 | 84.9 µM [falling, single point]
